Reference: the supplement of paper PMC10849652
The list shows a part of the results. Residues, ends and D or L forms follow the SMILES beside them. *: point of attachment. Cbz = O=C(OCc1ccccc1)*

Sequences of proteins named here, by UniProt entry; tags and fusion partners are left off. A change or cut given only in a name is not applied to a line headed by its entry.
UniProt Q9UKL0, whole entry, looked up: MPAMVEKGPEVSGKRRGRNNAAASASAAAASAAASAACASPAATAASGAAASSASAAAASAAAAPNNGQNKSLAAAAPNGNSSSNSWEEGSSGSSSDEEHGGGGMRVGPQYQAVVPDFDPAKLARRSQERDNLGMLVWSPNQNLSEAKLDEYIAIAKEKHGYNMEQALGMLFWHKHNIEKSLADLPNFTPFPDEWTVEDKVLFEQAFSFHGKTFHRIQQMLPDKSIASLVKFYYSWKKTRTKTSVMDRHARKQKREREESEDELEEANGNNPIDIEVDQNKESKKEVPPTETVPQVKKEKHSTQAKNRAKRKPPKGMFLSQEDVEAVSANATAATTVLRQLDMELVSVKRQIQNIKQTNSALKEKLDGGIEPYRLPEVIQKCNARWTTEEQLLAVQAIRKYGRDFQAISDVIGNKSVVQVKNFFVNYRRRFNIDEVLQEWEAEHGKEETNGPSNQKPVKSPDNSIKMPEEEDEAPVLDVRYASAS
UniProt Q5TC82: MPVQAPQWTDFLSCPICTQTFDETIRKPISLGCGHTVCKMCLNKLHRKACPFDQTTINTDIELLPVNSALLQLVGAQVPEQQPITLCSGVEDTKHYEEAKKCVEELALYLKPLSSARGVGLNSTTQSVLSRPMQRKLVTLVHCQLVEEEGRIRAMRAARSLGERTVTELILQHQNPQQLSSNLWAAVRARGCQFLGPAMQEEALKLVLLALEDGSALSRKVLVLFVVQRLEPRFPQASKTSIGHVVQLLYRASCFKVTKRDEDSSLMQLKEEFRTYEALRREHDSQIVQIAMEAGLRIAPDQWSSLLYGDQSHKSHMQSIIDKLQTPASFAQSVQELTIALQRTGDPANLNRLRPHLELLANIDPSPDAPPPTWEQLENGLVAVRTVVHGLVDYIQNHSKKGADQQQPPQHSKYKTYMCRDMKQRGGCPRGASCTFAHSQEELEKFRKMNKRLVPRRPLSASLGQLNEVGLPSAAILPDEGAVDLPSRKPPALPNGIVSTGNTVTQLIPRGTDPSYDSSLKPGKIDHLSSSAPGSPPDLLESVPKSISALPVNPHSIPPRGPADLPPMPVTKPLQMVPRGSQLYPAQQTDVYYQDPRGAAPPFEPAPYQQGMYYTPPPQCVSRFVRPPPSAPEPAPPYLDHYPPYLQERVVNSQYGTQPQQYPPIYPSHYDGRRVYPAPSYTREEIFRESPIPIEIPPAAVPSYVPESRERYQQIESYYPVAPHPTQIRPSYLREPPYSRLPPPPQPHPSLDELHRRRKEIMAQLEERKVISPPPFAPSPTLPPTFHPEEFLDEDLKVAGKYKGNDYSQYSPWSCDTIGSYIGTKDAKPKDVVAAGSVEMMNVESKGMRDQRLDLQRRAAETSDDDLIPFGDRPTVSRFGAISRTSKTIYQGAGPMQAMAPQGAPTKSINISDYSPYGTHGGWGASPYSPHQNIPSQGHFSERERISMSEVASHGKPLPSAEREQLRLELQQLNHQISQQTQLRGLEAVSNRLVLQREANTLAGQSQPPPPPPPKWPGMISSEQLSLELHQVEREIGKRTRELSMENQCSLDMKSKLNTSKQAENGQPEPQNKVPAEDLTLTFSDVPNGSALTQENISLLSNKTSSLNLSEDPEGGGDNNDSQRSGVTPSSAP
UniProt Q8WVD5: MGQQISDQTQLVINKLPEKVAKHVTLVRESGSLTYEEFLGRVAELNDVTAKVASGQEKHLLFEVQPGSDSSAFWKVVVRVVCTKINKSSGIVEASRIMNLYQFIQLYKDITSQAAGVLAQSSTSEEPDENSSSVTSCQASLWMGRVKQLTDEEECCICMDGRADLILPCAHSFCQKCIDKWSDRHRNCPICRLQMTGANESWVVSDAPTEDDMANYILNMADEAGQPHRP
UniProt Q9H1K0: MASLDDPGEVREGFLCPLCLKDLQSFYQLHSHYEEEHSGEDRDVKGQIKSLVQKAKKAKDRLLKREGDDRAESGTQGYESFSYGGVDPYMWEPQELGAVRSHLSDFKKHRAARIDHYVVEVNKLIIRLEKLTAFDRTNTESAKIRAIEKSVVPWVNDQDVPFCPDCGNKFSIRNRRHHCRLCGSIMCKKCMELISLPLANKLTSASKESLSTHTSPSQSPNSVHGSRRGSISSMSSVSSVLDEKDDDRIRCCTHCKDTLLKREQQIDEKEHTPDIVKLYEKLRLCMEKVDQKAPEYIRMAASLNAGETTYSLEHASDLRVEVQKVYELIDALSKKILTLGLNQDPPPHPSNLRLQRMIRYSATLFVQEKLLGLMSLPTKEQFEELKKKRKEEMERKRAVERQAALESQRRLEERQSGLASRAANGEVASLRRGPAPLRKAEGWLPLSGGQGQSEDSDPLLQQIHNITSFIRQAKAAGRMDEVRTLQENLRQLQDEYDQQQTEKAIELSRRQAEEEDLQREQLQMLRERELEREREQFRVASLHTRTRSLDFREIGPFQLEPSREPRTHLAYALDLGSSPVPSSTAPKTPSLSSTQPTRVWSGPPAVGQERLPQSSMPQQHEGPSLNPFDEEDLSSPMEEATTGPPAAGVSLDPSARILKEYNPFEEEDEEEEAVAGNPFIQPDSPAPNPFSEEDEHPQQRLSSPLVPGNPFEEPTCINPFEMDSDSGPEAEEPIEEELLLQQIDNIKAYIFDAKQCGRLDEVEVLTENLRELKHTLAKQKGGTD
UniProt Q9H6H4: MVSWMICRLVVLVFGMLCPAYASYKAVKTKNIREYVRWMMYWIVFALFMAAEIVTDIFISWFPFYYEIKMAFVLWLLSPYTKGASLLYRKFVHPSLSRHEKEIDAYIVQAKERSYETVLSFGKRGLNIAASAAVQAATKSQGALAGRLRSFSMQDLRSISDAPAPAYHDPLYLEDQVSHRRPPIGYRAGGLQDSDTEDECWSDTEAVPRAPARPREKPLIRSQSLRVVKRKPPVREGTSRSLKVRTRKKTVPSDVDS
UniProt Q04864: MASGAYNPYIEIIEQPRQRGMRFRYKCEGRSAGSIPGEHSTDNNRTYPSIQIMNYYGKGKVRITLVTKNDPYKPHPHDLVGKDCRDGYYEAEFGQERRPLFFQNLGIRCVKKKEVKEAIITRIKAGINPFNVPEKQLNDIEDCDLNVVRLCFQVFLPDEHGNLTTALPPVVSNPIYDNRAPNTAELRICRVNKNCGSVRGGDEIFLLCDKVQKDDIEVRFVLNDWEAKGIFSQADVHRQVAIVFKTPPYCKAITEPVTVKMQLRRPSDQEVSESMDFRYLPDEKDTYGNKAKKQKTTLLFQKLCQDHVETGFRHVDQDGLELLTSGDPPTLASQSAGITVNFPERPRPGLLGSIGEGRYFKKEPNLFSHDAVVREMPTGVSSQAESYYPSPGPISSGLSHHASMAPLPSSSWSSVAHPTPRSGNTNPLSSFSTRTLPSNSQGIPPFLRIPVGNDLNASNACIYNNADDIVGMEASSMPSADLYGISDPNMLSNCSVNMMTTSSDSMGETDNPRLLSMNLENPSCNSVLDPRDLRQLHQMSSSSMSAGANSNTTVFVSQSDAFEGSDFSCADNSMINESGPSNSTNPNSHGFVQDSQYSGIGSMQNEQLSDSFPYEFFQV
UniProt Q86VR2, whole entry, looked up: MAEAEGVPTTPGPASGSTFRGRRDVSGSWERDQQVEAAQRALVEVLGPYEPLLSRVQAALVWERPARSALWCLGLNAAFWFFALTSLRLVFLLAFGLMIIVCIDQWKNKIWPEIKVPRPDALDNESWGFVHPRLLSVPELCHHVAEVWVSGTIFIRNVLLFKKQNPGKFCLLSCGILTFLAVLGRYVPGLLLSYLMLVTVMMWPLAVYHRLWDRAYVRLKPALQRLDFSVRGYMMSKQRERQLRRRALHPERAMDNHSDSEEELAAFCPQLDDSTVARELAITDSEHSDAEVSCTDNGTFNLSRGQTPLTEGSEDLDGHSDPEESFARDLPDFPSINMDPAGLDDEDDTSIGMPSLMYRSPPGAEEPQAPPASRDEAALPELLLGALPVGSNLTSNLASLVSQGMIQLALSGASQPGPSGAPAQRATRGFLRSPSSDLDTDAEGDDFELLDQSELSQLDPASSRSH
UniProt Q96K19: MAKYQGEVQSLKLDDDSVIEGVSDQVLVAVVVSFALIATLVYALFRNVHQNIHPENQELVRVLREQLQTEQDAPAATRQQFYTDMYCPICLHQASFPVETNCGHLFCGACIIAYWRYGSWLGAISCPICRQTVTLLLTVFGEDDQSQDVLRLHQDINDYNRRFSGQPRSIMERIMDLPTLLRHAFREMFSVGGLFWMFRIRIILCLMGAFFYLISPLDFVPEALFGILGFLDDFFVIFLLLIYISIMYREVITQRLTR
UniProt P40938, whole entry, looked up: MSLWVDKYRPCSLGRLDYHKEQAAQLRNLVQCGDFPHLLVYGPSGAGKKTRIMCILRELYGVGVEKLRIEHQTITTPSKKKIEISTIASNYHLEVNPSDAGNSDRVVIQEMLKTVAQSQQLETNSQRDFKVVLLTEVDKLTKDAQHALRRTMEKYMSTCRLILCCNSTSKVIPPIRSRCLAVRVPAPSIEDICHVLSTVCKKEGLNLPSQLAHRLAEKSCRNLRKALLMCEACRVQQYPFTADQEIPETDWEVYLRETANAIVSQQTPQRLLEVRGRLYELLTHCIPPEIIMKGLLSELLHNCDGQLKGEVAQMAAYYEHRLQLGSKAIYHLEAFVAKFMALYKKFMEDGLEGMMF
UniProt Q8NC44: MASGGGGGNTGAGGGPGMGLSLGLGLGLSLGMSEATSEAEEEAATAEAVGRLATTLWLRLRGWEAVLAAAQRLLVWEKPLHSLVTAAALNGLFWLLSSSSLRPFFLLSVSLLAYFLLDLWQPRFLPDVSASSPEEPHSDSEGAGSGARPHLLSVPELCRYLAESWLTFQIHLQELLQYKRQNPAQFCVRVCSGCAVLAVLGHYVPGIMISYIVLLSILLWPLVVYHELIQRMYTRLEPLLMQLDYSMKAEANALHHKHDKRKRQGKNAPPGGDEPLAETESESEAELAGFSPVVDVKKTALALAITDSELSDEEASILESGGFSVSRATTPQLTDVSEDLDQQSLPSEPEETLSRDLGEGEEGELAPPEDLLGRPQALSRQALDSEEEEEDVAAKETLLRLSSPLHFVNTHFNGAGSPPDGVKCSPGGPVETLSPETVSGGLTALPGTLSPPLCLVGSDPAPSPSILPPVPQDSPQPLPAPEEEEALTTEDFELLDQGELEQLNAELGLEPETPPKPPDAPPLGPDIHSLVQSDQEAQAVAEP
UniProt P61586, whole entry, looked up: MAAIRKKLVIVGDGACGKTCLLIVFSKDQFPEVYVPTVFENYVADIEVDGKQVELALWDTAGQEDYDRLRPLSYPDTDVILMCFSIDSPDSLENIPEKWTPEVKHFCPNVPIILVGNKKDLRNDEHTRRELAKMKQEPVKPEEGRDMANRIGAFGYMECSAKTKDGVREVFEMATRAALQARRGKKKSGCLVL
UniProt Q6NTF9: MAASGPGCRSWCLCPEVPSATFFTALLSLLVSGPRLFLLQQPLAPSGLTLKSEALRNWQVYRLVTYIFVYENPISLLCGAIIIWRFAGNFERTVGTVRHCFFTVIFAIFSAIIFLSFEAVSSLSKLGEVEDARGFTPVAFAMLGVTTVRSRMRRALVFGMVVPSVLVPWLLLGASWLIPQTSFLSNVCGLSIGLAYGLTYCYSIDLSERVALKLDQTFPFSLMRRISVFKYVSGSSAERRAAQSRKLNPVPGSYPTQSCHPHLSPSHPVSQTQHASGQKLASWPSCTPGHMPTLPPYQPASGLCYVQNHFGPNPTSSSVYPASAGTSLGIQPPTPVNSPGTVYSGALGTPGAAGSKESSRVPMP
UniProt Q96D15: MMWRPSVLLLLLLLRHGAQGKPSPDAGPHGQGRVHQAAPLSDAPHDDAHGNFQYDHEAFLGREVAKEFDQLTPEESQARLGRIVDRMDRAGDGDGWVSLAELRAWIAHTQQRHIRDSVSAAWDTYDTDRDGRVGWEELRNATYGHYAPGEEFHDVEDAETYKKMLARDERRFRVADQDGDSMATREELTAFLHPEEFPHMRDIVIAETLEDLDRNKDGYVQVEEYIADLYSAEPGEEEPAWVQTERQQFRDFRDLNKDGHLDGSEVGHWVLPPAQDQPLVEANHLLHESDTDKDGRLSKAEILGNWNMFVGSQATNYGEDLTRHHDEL
UniProt Q99496: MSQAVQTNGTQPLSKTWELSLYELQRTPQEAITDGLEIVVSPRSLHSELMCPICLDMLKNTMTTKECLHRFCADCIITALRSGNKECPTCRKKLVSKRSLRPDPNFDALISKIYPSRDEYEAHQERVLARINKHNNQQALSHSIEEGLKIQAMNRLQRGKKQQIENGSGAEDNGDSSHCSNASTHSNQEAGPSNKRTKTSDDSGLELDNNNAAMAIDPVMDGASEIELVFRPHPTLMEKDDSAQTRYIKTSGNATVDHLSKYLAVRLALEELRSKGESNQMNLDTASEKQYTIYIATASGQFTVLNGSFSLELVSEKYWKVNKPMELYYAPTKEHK
UniProt O43665: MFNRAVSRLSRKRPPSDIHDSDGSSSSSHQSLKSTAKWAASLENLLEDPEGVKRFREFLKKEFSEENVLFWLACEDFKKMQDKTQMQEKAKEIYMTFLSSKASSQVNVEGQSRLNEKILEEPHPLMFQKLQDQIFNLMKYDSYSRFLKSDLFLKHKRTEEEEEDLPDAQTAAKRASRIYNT

Tests used:
Assay in all cases: log2 fold change, soluble protein after heating vs DMSO (PISA); higher = thermal stabilisation; K562 cells, 10 uM, 30 min; active = over 0.2 and 3.5 SD of the protein, either way, in both replicates (recomputed)
IRAK-1-4 Inhibitor I = compound: C1COCCN1CCN2C3=CC=CC=C3N=C2NC(=O)C4=CC(=CC=C4)[N+](=O)[O-] [IRAK-1-4 Inhibitor I]
In short: (§1)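 K562 cells at 2×10^6 cells/mL were treated for 30 min with 10 μM compound, and aliquots were heated for 3 min over 48°C-58°C before pooling. Extraction used PBS with 0.5% NP-40 at 4°C, and soluble protein was the supernatant after 21,000xg for 90 min, measured by TMTpro 16plex LC-MS/MS with channel sums equalised. Thermal stability values, relative to control samples and from duplicates, are log2 fold changes.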

ibrutinib = compound: C=CC(=O)N1CCC[C@@H](n2nc(-c3ccc(Oc4ccccc4)cc3)c3c(N)ncnc32)C1 [ibrutinib]
In short: as §1

[1] = compound: CC(=O)c1cnc2ccc(-c3cc(Cl)c(O)c(Cl)c3)nc2c1N[C@H]1CC[C@H](CN(C)C)CC1
In short: as §1

ralimetinib = compound: CC(C)(C)Cn1c(N)nc2ccc(-c3[nH]c(C(C)(C)C)nc3-c3ccc(F)cc3)nc21 [ralimetinib]
In short: as §1

[2] = compound: CC(C)C1=C2N=C(C=C(N2N=C1)NCC3=CC=CC=C3)NCCCCCCN
In short: as §1

[3] = compound: CC(C)C[C@@H](C=O)NC(=O)[C@H](CC(C)C)NC(=O)[C@H](CC(C)C)NC(=O)OCc1ccccc1
In short: as §1

pinometostat = compound: CC(C)N(C[C@H]1O[C@@H](n2cnc3c(N)ncnc32)[C@H](O)[C@@H]1O)[C@H]1C[C@@H](CCc2nc3cc(C(C)(C)C)ccc3[nH]2)C1 [pinometostat]
In short: as §1

[4] = compound: CC1=C(C2=C(C=C1)C(=O)C3=CC=CC=C3N2CCCN)C
In short: as §1

[5] = compound: CC1=C(C=C(C=C1)NC(=O)C2=CC(=CC=C2)C(C)(C)C#N)NC3=CC4=C(C=C3)N=CN(C4=O)C
In short: as §1

[6] = compound: CC1=C(C=C(C=C1)NC(=O)C2=CC(=CC=C2)N(C)C)NC(=O)C3=CC=C(C=C3)O
In short: as §1

[7] = compound: CC1=CC=C(C=C1)SC2=C3C=C(SC3=CN=C2)C(=O)N
In short: as §1

[8] = compound: CC1=NC(=CC=C1)C2=C(N=C(N2)C(C)(C)C)C3=CC4=NC=CN=C4C=C3
In short: as §1

vemurafenib = compound: CCCS(=O)(=O)Nc1ccc(F)c(C(=O)c2c[nH]c3ncc(-c4ccc(Cl)cc4)cc23)c1F [vemurafenib]
In short: as §1

[9] = compound: CCCS(=O)(=O)Nc1ccc(F)c(C(=O)c2c[nH]c3ncc(Cl)cc23)c1F
In short: as §1

[10] = compound: CCCc1cc(C)[nH]c(=O)c1CNC(=O)c1cc(-c2ccnc(N3CCN(C)CC3)c2)cc2c1cnn2C(C)C
In short: as §1

givinostat = compound: CCN(CC)Cc1ccc2cc(COC(=O)Nc3ccc(C(=O)NO)cc3)ccc2c1 [givinostat]
In short: as §1

barasertib = compound: CCN(CCCOc1ccc2c(Nc3cc(CC(=O)Nc4cccc(F)c4)[nH]n3)ncnc2c1)CCOP(=O)(O)O [barasertib]
In short: as §1

[11] = compound: CC(C)(O)CC(=O)NCCn1ccc2ncnc(Nc3ccc(Oc4cccc(C(F)(F)F)c4)c(Cl)c3)c21
In short: as §1

Nexturastat A = compound: CCCCN(Cc1ccc(C(=O)NO)cc1)C(=O)Nc1ccccc1 [Nexturastat A]
In short: as §1

[12] = compound: CC1=C(C(CC(=O)N1)C2=CC=C(C=C2)C(F)(F)F)C(=O)NC3=C(C=C4C(=C3)C=NN4)F
In short: as §1

Measured: log2 fold change

RCOR3 isoform 3 (UniProt Q9P2K3)
inactive: IRAK-1-4 Inhibitor I 0.009 | ibrutinib -0.053 | [1] -0.188 | ralimetinib 0.017 | [2] -0.048 | [3] 0.062 | pinometostat -0.038 | [4] -0.035 | [5] -0.12 | [6] -0.046 | [7] 0.051 | [8] 0.012 | vemurafenib 0.025 | [9] 0.031 | [10] -0.022 | givinostat 0.075 | barasertib 0.098

RCOR1 (UniProt Q9UKL0)
inactive: IRAK-1-4 Inhibitor I -0.037 | ibrutinib -0.036 | [1] -0.14 | ralimetinib 0.002 | [11] -0.08 | [2] 0.002 | [3] -0.034 | pinometostat 0.026 | [4] 0.021 | [5] -0.061 | [6] -0.089 | [7] 0.037 | [8] 0.021 | Nexturastat A 0.054 | vemurafenib 0.016 | [9] 0.029 | [10] -0.032 | givinostat 0.114 | barasertib 0.01

RC3H1 (UniProt Q5TC82)
inactive: IRAK-1-4 Inhibitor I 0.051 | [1] -0.41 | [11] -0.042 | [2] 0.013 | pinometostat 0.059 | [4] -0.082 | [5] 0.065 | [7] -0.07 | [8] -0.062 | Nexturastat A 0.174 | vemurafenib 0.074 | [9] -0.018 | [10] -0.2 | givinostat -0.013

RNF141 (UniProt Q8WVD5)
inactive: IRAK-1-4 Inhibitor I 0.016 | ibrutinib -0.042 | ralimetinib 0.018 | [2] 0.092 | [3] 0.002 | pinometostat -0.073 | [12] 0.076 | [4] -0.066 | [5] -0.021 | [6] -0.042 | [7] 0.004 | [8] 0.118 | vemurafenib -0.005 | [9] 0.079 | givinostat -0.088 | barasertib -0.073

RBSN (UniProt Q9H1K0)
inactive: IRAK-1-4 Inhibitor I 0.027 | ibrutinib -0.334 | [1] 0.15 | ralimetinib -0.006 | [2] -0.249 | [3] -0.065 | pinometostat 0.073 | [12] -0.08 | [4] 0.016 | [5] 0.087 | [6] -0.022 | [7] 0.124 | [8] 0.103 | vemurafenib -0.055 | [9] 0.261 | givinostat -0.007 | barasertib 0.051

REEP4 (UniProt Q9H6H4)
inactive: IRAK-1-4 Inhibitor I 0.005 | ibrutinib -0.003 | [1] -0.198 | ralimetinib 0.164 | [11] -0.049 | [2] -0.157 | [3] 0.041 | pinometostat 0.13 | [4] 0.036 | [5] 0.08 | [6] 0.001 | [7] 0.047 | [8] -0.043 | Nexturastat A 0.107 | vemurafenib 0.008 | [9] 0.126 | [10] 0.019 | givinostat 0.011 | barasertib 0.002

REL (UniProt Q04864)
inactive: IRAK-1-4 Inhibitor I -0.046 | ibrutinib -0.095 | [1] -0.017 | ralimetinib 0.037 | [11] -0.093 | [2] -0.074 | [3] 0.062 | pinometostat 0.089 | [4] 0.005 | [5] 0.001 | [6] -0.044 | [7] 0.033 | [8] -0.004 | Nexturastat A -0.053 | vemurafenib 0.044 | [9] 0.077 | [10] -0.022 | givinostat 0.101 | barasertib 0.079

RETREG3 (UniProt Q86VR2)
inactive: IRAK-1-4 Inhibitor I 0.117 | ibrutinib -0.002 | [1] -0.01 | ralimetinib -0.036 | [11] -0.04 | [2] -0.167 | [3] 0.007 | pinometostat 0.035 | [4] -0.016 | [5] -0.006 | [6] 0.014 | [7] 0.148 | [8] 0.13 | Nexturastat A 0.062 | vemurafenib 0.043 | [9] 0.055 | [10] -0.044 | givinostat -0.048 | barasertib 0.023

RNF170 (UniProt Q96K19)
inactive: IRAK-1-4 Inhibitor I -0.061 | ibrutinib -0.004 | [1] -0.15 | ralimetinib -0.016 | [11] -0.111 | [3] 0.033 | pinometostat 0.096 | [12] -0.081 | [6] -0.036 | [7] -0.02 | [8] 0.176 | Nexturastat A -0.064 | vemurafenib 0.094 | [9] -0.106 | [10] 0.047 | barasertib 0

RFC3 (UniProt P40938)
inactive: IRAK-1-4 Inhibitor I 0.003 | ibrutinib 0.025 | [1] -0.101 | ralimetinib 0.021 | [11] -0.087 | [2] -0.012 | [3] -0.047 | pinometostat -0.057 | [4] 0.09 | [5] -0.003 | [6] -0.031 | [7] 0.05 | [8] 0.058 | Nexturastat A -0.032 | vemurafenib 0.048 | [9] 0.101 | [10] 0 | givinostat -0.007 | barasertib -0.011

RETREG2 (UniProt Q8NC44)
inactive: IRAK-1-4 Inhibitor I 0.063 | ibrutinib 0.069 | [1] 0.048 | ralimetinib 0.002 | [2] -0.096 | [3] -0.005 | pinometostat 0.065 | [12] -0.029 | [4] 0.04 | [5] 0.086 | [6] -0.018 | [7] 0.019 | [8] -0.025 | vemurafenib 0.081 | [9] 0.087 | [10] -0.06 | givinostat 0.024 | barasertib 0.011

RHOA (UniProt P61586)
inactive: IRAK-1-4 Inhibitor I 0.108 | ibrutinib -0.015 | [1] 0.047 | ralimetinib 0.251 | [11] -0.034 | [2] 0.063 | [3] -0.07 | pinometostat -0.023 | [4] -0.007 | [5] 0.015 | [6] -0.073 | [7] 0.047 | [8] 0.061 | Nexturastat A 0.039 | vemurafenib -0.042 | [9] 0.074 | [10] 0.145 | givinostat -0.032 | barasertib 0.026

RHBDD2 isoform 2 (UniProt Q6NTF9)
inactive: IRAK-1-4 Inhibitor I 0.007 | ibrutinib -0.062 | [1] 0.006 | [11] -0.354 | [2] -0.113 | pinometostat -0.037 | [12] -0.16 | [8] 0.202 | Nexturastat A 0.044 | [10] -0.079 | givinostat -0.027 | barasertib 0.002

RCN3 (UniProt Q96D15)
inactive: IRAK-1-4 Inhibitor I 0.131 | ibrutinib 0.075 | [1] -0.048 | ralimetinib -0.013 | [11] 0.013 | [2] 0.047 | [3] 0.026 | pinometostat -0.035 | [4] -0.031 | [5] -0.055 | [6] 0.029 | [7] -0.028 | [8] -0.073 | Nexturastat A 0.077 | vemurafenib -0.003 | [9] -0.053 | [10] -0.145 | givinostat -0.023 | barasertib -0.011

RNF2 (UniProt Q99496)
inactive: IRAK-1-4 Inhibitor I -0.024 | ibrutinib 0.086 | [1] 0.001 | [11] -0.065 | [2] 0.091 | pinometostat 0.066 | [4] -0.058 | [5] 0.155 | [7] 0.051 | [8] 0.022 | Nexturastat A 0.024 | vemurafenib -0.066 | [9] 0.061 | [10] 0.07 | givinostat -0.04 | barasertib -0.002

Random excerpt: two entries already listed.
RETREG2 (UniProt Q8NC44)
inactive: IRAK-1-4 Inhibitor I 0.063 | ibrutinib 0.069 | [1] 0.048 | ralimetinib 0.002 | [2] -0.096 | [3] -0.005 | pinometostat 0.065 | [12] -0.029 | [4] 0.04 | [5] 0.086 | [6] -0.018 | [7] 0.019 | [8] -0.025 | vemurafenib 0.081 | [9] 0.087 | [10] -0.06 | givinostat 0.024 | barasertib 0.011

RHBDD2 isoform 2 (UniProt Q6NTF9)
inactive: IRAK-1-4 Inhibitor I 0.007 | ibrutinib -0.062 | [1] 0.006 | [11] -0.354 | [2] -0.113 | pinometostat -0.037 | [12] -0.16 | [8] 0.202 | Nexturastat A 0.044 | [10] -0.079 | givinostat -0.027 | barasertib 0.002

More results follow.

RBP4 (UniProt P02753)
inactive: IRAK-1-4 Inhibitor I 0.042 | ibrutinib -0.101 | [1] 0.134 | ralimetinib 0.011 | [2] 0.125 | [3] 0.077 | pinometostat 0.16 | [4] -0.491 | [6] 0.422 | [8] 0.077 | vemurafenib 0.012 | [10] -0.385 | givinostat 0.004 | barasertib -0.029

RGS10 (UniProt O43665)
inactive: IRAK-1-4 Inhibitor I 0.046 | ibrutinib 0.047 | [1] -0.024 | ralimetinib 0.026 | [11] -0.025 | [2] -0.057 | [3] -0.004 | pinometostat 0.087 | [4] 0.015 | [5] -0.012 | [6] -0.02 | [7] -0.02 | [8] -0.041 | Nexturastat A -0.012 | vemurafenib 0.048 | [9] 0.034 | [10] 0.02 | givinostat 0.026 | barasertib 0.016

RBM4 (UniProt Q9BWF3)
inactive: IRAK-1-4 Inhibitor I -0.038 | ibrutinib -0.023 | [1] -0.083 | ralimetinib 0.099 | [11] 0.019 | [2] -0.136 | [3] 0.074 | pinometostat 0.076 | [4] -0.027 | [5] -0.041 | [6] -0.033 | [7] -0.061 | [8] -0.034 | Nexturastat A 0.081 | vemurafenib 0.01 | [9] 0.052 | [10] 0.003 | givinostat 0.071 | barasertib 0.018
